Assay results as given in paper PMC12607858, “GNAT family Pat2 is required for long-term survival on glycerol and catalyzes lysine acetylation of glycerol kinase in hypersaline-adapted archaea” (mBio, 2025).

Target: T1, HvPat2-SII Y154A (Haloferax volcanii) (UniProt D4GSS9)
T1 sequence: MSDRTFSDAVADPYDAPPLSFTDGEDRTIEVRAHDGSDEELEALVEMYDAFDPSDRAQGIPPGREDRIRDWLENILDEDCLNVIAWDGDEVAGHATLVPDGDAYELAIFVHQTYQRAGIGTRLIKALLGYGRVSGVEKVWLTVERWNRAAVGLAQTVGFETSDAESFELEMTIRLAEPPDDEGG
Assay: affinity purification with mass spectrometry; StrepTactin resin with clarified H. volcanii lysate, 50 mM HEPES pH 7.5, 2 M NaCl, 1 mM TCEP, eluted with 1 mM desthiobiotin; co-purifying band at about 50 kDa cut from the SDS-PAGE gel and identified by LC-MS/MS, compared to the empty vector control

binding: binds
B1: HVO_2384, tandem CBS domain protein with a C-terminal ribosome hibernation factor domain (protein, UniProt D4GWN2 1-380)
chain: MDIADIATPDFIEVDVNERLGKVRSIFERENPKGIIVQDDGEYAGVIGEKQLINSHVEDNTKAAALTKAVPKIDRHENVREVARMLVEGDTKVAPVYEGEKQYGIITQDAILEAVLDNLDALTVEQIYTDDVVTVGERDHLGQAINRLREHGVSRLPVVNDEGRLEGILTTYDLVEFMVRDEGRQGKQDRRGDTDRMLDLPVYDLMTSPARTATPDESVRDAVARMLEHDIAGLVVTPADDDGEVLGVVTKTDVLRALTYTEEEQMDVQVTNIGLIETLSRADINSAITEVADKYQRMSVLHAHVRFHEHKEKLRGTPLIQCQIRLRTSHGQLAGSGEGYGAEHAFHVALDKLERNVLEVKGFEADERYRGQLLRKLNEL

No constants are given. Whether binding was seen depends on the method and setting. Binding seen in cells or lysates may run through a third protein. These calls come from enrichment with a bait or labelling near it, and not all partners need be listed.
